The target of this assay is Myc-Flag-GATA3 (UniProt P23772). Kind of assay: co-IP; ILC2/b6 cells infected with retroviruses for FLAG-GATA3 and JunB; five days later IP with anti-Flag M2 agarose overnight at 4 °C, immunoblot with anti-JunB; IP buffer 50 mM Tris-HCl pH 7.5, 150 mM NaCl, 10% glycerol, 0.1% Tween, 1 mM EDTA. (In general: Immunoblotting shows a protein as a band on a membrane.)

Amino acid sequences for entries named in this document (tags omitted).
UniProt P23772: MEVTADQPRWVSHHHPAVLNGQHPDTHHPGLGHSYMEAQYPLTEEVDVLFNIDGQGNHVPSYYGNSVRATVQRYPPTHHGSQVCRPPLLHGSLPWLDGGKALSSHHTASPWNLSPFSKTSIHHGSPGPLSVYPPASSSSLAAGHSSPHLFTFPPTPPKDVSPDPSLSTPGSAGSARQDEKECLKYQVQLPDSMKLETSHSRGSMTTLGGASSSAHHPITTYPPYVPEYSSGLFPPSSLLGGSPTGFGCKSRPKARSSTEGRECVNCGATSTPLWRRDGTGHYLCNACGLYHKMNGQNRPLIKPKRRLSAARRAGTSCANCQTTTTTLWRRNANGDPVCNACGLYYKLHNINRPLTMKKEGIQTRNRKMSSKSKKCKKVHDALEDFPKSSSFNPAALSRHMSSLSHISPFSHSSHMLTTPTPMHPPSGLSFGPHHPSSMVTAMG

No constants are given. Whether binding was seen depends on the method and setting. In cells and extracts the contact can be indirect. Some entries that bind do so weakly or less than the wild type.

B1: JunB (retrovirus-encoded, ILC2/b6 cells) (protein, UniProt P09450 1-344)
chain: MCTKMEQPFYHDDSYAAAGYGRSPGSLSLHDYKLLKPTLALNLADPYRGLKGPGARGPGPEGSGAGSYFSGQGSDTGASLKLASTELERLIVPNSNGVITTTPTPPGQYFYPRGGGSGGGTGGGVTEEQEGFADGFVKALDDLHKMNHVTPPNVSLGASGGPQAGPGGVYAGPEPPPVYTNLSSYSPASAPSGGSGTAVGTGSSYPTATISYLPHAPPFAGGHPAQLGLSRGASAFKEEPQTVPEARSRDATPPVSPINMEDQERIKVERKRLRNRLAATKCRKRKLERIARLEDKVKTLKAENAGLSSAAGLLREQVAQLKQKVMTHVSNGCQLLLGVKGHAF
In the case of B1, the binding result is “binds”.

The record behind these values is publication PMC9478157.
